The source of these data is doi:10.1101/2023.01.12.523719.

Chains of the proteins cited; added tags and fusions are not shown.
UniProt Q810Q5: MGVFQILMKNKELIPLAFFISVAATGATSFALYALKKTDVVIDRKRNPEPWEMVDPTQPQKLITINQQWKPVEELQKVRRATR

Assay [1] deals with T1, Myc-tagged NLRP6 full-length (UniProt Q91WS2).
T1 sequence: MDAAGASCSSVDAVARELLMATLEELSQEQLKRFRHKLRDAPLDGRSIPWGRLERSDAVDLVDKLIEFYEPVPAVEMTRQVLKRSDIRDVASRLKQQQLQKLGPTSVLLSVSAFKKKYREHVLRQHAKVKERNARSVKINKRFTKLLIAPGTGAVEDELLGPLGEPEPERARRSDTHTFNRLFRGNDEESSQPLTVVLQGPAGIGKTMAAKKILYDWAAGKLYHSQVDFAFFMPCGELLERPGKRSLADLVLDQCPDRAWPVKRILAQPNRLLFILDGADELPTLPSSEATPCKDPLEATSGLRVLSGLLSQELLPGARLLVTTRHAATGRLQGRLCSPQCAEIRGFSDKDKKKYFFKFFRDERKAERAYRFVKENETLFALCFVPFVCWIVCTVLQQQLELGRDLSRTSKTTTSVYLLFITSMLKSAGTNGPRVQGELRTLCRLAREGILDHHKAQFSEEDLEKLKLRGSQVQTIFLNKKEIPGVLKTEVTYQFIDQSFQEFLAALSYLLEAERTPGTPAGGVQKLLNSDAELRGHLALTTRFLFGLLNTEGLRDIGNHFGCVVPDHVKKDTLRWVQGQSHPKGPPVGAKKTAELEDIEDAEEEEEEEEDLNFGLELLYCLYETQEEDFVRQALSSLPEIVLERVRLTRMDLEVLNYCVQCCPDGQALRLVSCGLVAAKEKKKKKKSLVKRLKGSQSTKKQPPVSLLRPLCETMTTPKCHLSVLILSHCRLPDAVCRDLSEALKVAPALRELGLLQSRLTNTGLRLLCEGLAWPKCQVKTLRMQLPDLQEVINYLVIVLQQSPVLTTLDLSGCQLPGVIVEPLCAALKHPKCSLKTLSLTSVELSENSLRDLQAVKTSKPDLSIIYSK
In words: co-IP.

The target of assay [2] is T2, endogenous NLRP6 (mouse (endogenous in small intestinal enterocytes)) (UniProt Q91WS2).
T2 sequence: T1 sequence
Description: co-IP.

The target in assay [3] is FLAG-tagged iTie (mouse) (UniProt Q810Q5). Description: co-IP.
Assay [4] concerns the target Recombinant GST-iTie (mouse) (UniProt Q810Q5). In words: pull-down.
Assay [5] deals with Endogenous iTie (mouse (endogenous in small intestinal enterocytes)) (UniProt Q810Q5). Description: co-IP.

These are yes or no findings as the source states them, for the method shown. In cells and extracts the contact can be indirect. Some binding calls cover weakened binding; strength is not graded here. For some assays here: Sequences can lack the tags named with a protein.

“FLAG-tagged iTie (from UniProt Q810Q5 1-83)”: in assay [1], the binding result is listed as “binds”.

Consider “Endogenous iTie (from UniProt Q810Q5 1-83)”, for which the binding entry in assay [2] was “binds”.

B1: Myc-tagged GSDMD (protein, UniProt Q9D8T2 1-487)
chain: MPSAFEKVVKNVIKEVSGSRGDLIPVDSLRNSTSFRPYCLLNRKFSSSRFWKPRYSCVNLSIKDILEPSAPEPEPECFGSFKVSDVVDGNIQGRVMLSGMGEGKISGGAAVSDSSSASMNVCILRVTQKTWETMQHERHLQQPENKILQQLRSRGDDLFVVTEVLQTKEEVQITEVHSQEGSGQFTLPGALCLKGEGKGHQSRKKMVTIPAGSILAFRVAQLLIGSKWDILLVSDEKQRTFEPSSGDRKAVGQRHHGLNVLAALCSIGKQLSLLSDGIDEEELIEAADFQGLYAEVKACSSELESLEMELRQQILVNIGKILQDQPSMEALEASLGQGLCSGGQVEPLDGPAGCILECLVLDSGELVPELAAPIFYLLGALAVLSETQQQLLAKALETTVLSKQLELVKHVLEQSTPWQEQSSVSLPTVLLGDCWDEKNPTWVLLEECGLRLQVESPQVHWEPTSLIPTSALYASLFLLSSLGQKPC
Consider B1, for which the binding entry in assay [3] is recorded as “no binding”.

B2: Myc-tagged NLRP6 full-length (protein, UniProt Q91WS2 1-869)
chain: T1 sequence
For the molecule B2, the binding result in assay [3] and in assay [4] was “binds” each time.

B3: endogenous NLRP6 (protein, UniProt Q91WS2 1-869)
chain: T1 sequence
On to B3, for which the binding result in assay [5] and in assay [4] was “binds” in each case.

B4: Myc-tagged caspase-1 (enzyme, UniProt P29452 1-402)
chain: MADKILRAKRKQFINSVSIGTINGLLDELLEKRVLNQEEMDKIKLANITAMDKARDLCDHVSKKGPQASQIFITYICNEDCYLAGILELQSAPSAETFVATEDSKGGHPSSSETKEEQNKEDGTFPGLTGTLKFCPLEKAQKLWKENPSEIYPIMNTTTRTRLALIICNTEFQHLSPRVGAQVDLREMKLLLEDLGYTVKVKENLTALEMVKEVKEFAACPEHKTSDSTFLVFMSHGIQEGICGTTYSNEVSDILKVDTIFQMMNTLKCPSLKDKPKVIIIQACRGEKQGVVLLKDSVRDSEEDFLTDAIFEDDGIKKAHIEKDFIAFCSSTPDNVSWRHPVRGSLFIESLIKHMKEYAWSCDLEDIFRKVRFSFEQPEFRLQMPTADRVTLTKRFYLFPGH
For B4, the binding result in assay [3] was “no binding”.
